# In publication doi:10.1101/2022.06.26.497646:
# Results are given in words; binding and its absence hold for the method and conditions named. Some entries that bind do so weakly or less than the wild type.
# T1: COX3b (Tetrahymena thermophila (endogenous)) (UniProt Q950Y6)
# T1 sequence: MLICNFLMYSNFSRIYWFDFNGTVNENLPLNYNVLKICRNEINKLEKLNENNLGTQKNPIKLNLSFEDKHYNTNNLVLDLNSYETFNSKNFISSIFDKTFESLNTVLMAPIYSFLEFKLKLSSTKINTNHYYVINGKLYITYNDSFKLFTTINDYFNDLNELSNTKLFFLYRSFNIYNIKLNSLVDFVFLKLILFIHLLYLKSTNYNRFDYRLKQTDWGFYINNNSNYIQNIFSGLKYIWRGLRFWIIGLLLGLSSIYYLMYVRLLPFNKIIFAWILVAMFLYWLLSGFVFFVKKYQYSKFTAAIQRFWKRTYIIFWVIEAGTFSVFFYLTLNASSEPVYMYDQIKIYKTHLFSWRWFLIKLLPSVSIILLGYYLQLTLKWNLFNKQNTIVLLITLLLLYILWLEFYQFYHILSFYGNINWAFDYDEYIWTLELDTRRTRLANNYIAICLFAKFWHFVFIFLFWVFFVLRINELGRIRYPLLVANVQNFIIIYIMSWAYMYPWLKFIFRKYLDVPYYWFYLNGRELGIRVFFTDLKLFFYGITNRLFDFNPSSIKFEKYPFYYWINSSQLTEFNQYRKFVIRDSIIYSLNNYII
# B1: COX3a (protein, UniProt Q950Y7 1-453)
# chain: MTALFLHILWSISYIIINILYIFLSLLLSNNNEKIKQYNSNYFIKILLVLFYNKNLSFYKNLLSEDEISKIEFERLKNYPTLVLIHSNLNKLEKRNKIINSFINFKTKYRFYKFISTNFNLQTIIKNCNDKIIFSTLLYIVNLNYSFFYKTIKNTDLIVYLLANKFSILNDNIIVSKFNISKFNDYIKYINNTNSIDTYLENQIILGLNNNTNSNITKNINTKLLNSYSNLKNLVNITNNTFYLKKINDNYNTVINSEFLTYLKSNYKISFSASNIVKYLSDKSVNNSVILYLRKNKIFNKSRYSRNRQTYRTGAYWCLYVNIIAVVAFYFWFYKFTMNFGYLWWLLYSLILSFFFSRALKHRFYNPLNVMTEFKNGFMWFIIILINIFKPLLKLLENNYINLYNHLVIKYYQSFICNTLINKKKLEFNYILSSFKFIKELNNIIIISLNKLF
# Biological target: T1, COX3b (Tetrahymena thermophila (endogenous))
# Experiment: cryo-EM structure
binder,measurement,value
B1,binding,binds
